Usually inhibition stands for the change of the read-out against control, counted positive when it falls.

Amino acid sequences for entries named in this document (tags omitted).
UniProt O43613, whole entry, looked up: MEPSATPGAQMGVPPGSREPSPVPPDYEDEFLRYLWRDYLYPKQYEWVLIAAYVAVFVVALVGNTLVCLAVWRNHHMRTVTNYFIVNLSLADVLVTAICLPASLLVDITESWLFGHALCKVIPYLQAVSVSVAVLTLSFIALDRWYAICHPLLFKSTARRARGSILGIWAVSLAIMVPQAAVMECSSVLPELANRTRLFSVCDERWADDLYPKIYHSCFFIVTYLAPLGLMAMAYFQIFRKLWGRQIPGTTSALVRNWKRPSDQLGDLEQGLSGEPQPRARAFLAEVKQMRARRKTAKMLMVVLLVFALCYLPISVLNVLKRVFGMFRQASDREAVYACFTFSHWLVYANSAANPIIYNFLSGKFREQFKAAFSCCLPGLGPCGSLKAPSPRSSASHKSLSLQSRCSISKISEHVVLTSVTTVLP

Hit rate of the full screen: of about 1,100 compounds, about 420 (38%) were called active. No stated cut-off is given here; in the data, active means inhibition above about 29%; inactive means the rest. The entries are a selection whose mix differs from that of the whole data set.

Data on one compound can be found in PubChem BioAssay AID492963 (The Scripps Research Institute Molecular Screening Center, 2010).

The experiment deals with Orexin/Hypocretin receptor type 1 (Homo sapiens) (UniProt O43613). As to the kind of experiment: OX1R (HCRTR1) antagonists, confirmation, fluorescence, CHO/OX1R cells, Fluo-8 calcium, orexin A (AID 492963).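 Further: 0% = agonist challenge alone and 100% = reference antagonist.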 As to conditions: orexin A calcium Fluo-8 fluorescence, at 5 µM, stronger effect = higher value.
With `CC(C(=O)Nc1ccc(Cl)cc1Cl)N1CC=C(c2ccccc2)CC1` (stereo unspecified), the inhibition was inactive: -25.8%.
